The text below walks through data of publication PMC5507890.

The chains behind the UniProt entries cited, without tags or fusion partners. Residues count along the entry.
UniProt P35739, residues 33-799: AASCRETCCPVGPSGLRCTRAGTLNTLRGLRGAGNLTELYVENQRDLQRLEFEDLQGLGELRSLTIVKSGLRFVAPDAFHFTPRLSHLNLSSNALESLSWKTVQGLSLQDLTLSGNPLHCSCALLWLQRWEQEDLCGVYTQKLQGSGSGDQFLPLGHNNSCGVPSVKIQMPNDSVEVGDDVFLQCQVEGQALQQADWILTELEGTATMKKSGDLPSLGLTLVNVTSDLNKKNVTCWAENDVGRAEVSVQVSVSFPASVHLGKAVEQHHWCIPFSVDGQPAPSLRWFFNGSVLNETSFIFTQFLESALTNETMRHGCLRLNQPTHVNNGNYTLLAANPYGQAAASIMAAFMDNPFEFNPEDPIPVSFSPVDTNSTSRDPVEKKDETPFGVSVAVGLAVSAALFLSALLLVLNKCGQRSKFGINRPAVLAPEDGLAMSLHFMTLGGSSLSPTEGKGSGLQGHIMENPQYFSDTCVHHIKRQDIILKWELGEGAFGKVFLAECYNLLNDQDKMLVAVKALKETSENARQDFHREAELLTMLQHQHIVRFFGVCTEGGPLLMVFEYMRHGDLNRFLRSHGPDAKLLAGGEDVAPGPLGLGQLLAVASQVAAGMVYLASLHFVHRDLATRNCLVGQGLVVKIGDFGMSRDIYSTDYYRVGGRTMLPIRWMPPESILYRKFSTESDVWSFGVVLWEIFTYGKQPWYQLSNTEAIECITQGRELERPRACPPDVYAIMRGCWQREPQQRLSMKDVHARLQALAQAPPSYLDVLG

No constants are given. Whether binding was seen depends on the method and setting. In cells and extracts the contact can be indirect.

The assay deals with T1, Membrane progesterone receptor beta (mPRβ/Paqr8) (rat (endogenous in PC12)) (UniProt Q6AY03).
T1 sequence: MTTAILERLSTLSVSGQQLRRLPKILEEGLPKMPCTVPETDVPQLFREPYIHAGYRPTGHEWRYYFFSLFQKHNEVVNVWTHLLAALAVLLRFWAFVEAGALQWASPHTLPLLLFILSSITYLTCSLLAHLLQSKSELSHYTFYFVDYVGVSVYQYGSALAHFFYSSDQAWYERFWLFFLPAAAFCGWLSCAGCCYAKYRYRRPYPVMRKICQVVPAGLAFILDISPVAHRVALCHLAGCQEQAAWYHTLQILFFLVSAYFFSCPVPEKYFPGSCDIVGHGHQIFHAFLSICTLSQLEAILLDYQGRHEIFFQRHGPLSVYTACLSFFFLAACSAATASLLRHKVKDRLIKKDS
The assay is described as follows: co-IP; lysates of cells left untreated or treated for 5 min with progesterone (10 μM) or NGF (100 ng/ml); immunoprecipitated with anti-mPRβ antibodies, blotted with anti-mPRβ and anti-TrkA antibodies.

As for “TrkA (from UniProt P35739 33-799) (receptor)”, the binding entry is given as “no binding”.
